These are yes or no findings as the source states them, for the method shown. In cells and extracts the contact can be indirect. These calls come from enrichment with a bait or labelling near it, and not all partners need be listed. Where a sequence is shown, tags or fusion partners need not be part of it.
Target: T1, Flag-TRIM72 stably expressed in Hela cells (UniProt Q6ZMU5)
T1 sequence: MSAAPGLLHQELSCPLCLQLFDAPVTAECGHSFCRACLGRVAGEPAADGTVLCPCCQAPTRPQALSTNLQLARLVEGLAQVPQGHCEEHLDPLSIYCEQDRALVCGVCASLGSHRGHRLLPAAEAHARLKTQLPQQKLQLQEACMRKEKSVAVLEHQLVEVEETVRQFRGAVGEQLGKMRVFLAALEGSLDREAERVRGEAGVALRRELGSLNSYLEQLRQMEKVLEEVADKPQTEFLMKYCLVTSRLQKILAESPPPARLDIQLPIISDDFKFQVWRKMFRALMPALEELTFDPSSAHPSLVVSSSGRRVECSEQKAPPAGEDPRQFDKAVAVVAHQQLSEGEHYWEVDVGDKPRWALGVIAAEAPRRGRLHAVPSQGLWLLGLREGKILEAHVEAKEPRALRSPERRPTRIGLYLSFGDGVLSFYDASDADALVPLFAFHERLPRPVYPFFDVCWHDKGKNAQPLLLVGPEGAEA
Assay: affinity purification with mass spectrometry

Sequences of proteins named here, by UniProt entry; tags and fusion partners are left off.
UniProt O60826: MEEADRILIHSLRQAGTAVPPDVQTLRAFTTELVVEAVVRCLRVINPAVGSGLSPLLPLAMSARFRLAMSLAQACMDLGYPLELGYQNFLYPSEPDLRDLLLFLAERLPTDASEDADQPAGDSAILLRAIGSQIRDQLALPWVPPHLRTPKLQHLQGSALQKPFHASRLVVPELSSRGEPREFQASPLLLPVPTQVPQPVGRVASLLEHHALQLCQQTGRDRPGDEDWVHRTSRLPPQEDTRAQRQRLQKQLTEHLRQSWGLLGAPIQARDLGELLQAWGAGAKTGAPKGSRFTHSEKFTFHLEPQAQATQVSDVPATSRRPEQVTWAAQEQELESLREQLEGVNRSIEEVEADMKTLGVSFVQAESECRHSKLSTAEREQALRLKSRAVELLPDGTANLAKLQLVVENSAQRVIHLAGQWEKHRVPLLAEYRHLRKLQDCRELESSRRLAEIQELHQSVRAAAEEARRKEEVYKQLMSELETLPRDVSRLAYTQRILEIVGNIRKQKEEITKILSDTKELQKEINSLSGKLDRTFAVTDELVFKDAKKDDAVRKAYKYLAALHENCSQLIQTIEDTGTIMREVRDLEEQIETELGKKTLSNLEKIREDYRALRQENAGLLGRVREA

binding: binds
Substance: CCDC22, endogenous in Hela cells (from UniProt O60826 1-627)

Reference: doi:10.1101/2025.01.09.632080
